No constants are given. Whether binding was seen depends on the method and setting. For some assays here: In cells and extracts the contact can be indirect. Some entries that bind do so weakly or less than the wild type. Where a sequence is shown, tags or fusion partners need not be part of it.

By UniProt entry, the sequences of proteins in these tests, tags left out. Residues count along the entry.
UniProt A0A0J9UVG7, residues 27-326: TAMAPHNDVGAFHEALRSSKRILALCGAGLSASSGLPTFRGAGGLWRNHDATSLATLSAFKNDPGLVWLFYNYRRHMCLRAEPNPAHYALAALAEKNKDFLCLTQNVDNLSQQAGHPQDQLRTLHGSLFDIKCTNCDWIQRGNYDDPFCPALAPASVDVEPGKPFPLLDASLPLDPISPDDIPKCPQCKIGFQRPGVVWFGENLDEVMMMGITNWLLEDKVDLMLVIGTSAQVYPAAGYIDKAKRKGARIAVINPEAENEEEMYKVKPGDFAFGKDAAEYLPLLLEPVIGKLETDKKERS

Drawing on article PMC8730727, this text covers binding for two molecules.

In assay [1] the target is T1, FoDLAT-MBP fusion protein (Fusarium oxysporum f. sp. lycopersici strain 4287).
T1 sequence (chain, crotonyl-lysine at K148 detected on the protein from E. coli (share not stated)): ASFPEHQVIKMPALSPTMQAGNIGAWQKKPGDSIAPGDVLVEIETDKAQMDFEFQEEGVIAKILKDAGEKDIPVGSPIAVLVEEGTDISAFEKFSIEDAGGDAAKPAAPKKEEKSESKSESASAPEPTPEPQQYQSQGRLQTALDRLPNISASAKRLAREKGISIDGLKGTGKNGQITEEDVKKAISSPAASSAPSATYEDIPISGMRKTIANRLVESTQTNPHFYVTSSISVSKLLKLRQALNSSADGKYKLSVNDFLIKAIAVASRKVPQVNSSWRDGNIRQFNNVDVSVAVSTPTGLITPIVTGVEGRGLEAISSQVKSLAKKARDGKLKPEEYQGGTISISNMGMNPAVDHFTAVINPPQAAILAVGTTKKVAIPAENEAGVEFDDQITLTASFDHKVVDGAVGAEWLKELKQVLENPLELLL
Description: pull-down; 1 µg FoSir5-His mixed with 1 µg MBP or MBP-FoDLAT, 50 mM HEPES pH 7.5, 1 mM EDTA, 150 mM NaCl, 0.5 mM DTT, 0.8% glycerol, room temperature 1 hr; amylose resin; blot with anti-MBP and anti-His; both purified.

Assay [2] deals with FoSir5-GFP (Fusarium oxysporum f. sp. lycopersici strain 4287). Description: co-IP; cell extracts of F. oxysporum transformants co-expressing FoDLAT-Flag with GFP or FoSir5-GFP; anti-GFP agarose; blot with anti-Flag and anti-GFP.

Turning to “FoSir5-His (from UniProt A0A0J9UVG7 27-326) (enzyme)”, the binding result in assay [1] is reported as “binds”.

B1: FoDLAT-Flag (enzyme, UniProt A0A0D2Y5A7 31-457)
chain: T1 sequence (chain, crotonyl-lysine at K148 detected on the protein from E. coli (share not stated))
For the molecule B1, the binding entry in assay [2] is listed as “binds”.
